For at least one compound, name, drawing or mass did not settle the structure.
Test system: cam-TA
Assay type: cell-based, Saccharomyces cerevisiae
Details: BY-TeCaOFF, 25 μM, 1 day in SC medium
From the text: FIG. 6. Independent regulation of fluorescent reporters, RFP and GFP, with camphor-Off and Tet-Off systems. (A) pSIB859 can be used for integrating the camphor-Off system at a single transformation. Its derivative plasmid pSIB872 carries mCherry as a reporter. (B) Plasmid pSIB498 for the Tet-Off system. Its derivative pSIB527 carries gfp as a reporter. (C)-(F) Strain BY-TeCaOFF carries both pSIB872 and pSIB527. Cell images in SC medium (C), SC with camphor (D), SC with Dox (E), and SC with camphor and Dox. The top, middle, and bottom rows represent images of RFP, GFP, and DIC, respectively. Strain BY-TeCaOFF was grown for 1 day in SC medium with the indicated compounds.
The experiments in this section were performed to examine whether the camphor-Off system was orthogonal/compatible with the Tet-Off system in a yeast strain. Firstly, we developed new two acceptor vectors: one was used for the camphor-Off switch and the other was the Tet-Off switch. […]
Cells were viewed with an Axioskop-2 microscope (Carl Zeiss, Oberkochen, Germany) equipped with an X-cite120 light source (ExFo, Ontario, Canada) and a fluorescence filter set. A 100× objective and AxioVision software were used to capture fluorescence and differential interference contrast (DIC) images.

C[C@H]1c2cccc(O)c2C(=O)C2=C(O)[C@]3(O)C(=O)C(C(N)=O)=C(O)[C@@H](N(C)C)[C@@H]3[C@@H](O)[C@@H]21 [Dox, doxycycline]
the other fluorescence (mCherry, camphor-Off) on addition of Dox alone: detected robustly

Source: patent publication US10093938B2, “Regulated switch for gene expression” (The Johns Hopkins University, priority 2014, dated 2018)
